# PubChem BioAssay AID504834 (National Center for Advancing Translational Sciences (NCATS), 2011)
# Screen size: about 320,000 compounds; about 22,000 (6.9%) were called active. The inconclusive results got no clear call from the source; some entries with a clear call stand among them for comparison. The call rests on the fitted dose curve; in most records, active means well fitted inhibition curve with a large enough effect; inconclusive means small, poorly fitted or top-dose-only effect, or another doubt; inactive means no such curve, though single readings can be large or run the other way. Potencies of inconclusive entries are doubtful fits and often do not repeat.
# Assay: Primary qHTS for delayed death inhibitors of the malarial parasite plastid, 96 hour incubation
# Conditions: P. falciparum luciferase reporter growth; series mostly up to 28.7 µM
# Summary of the method: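 Parasite growth measured via integrated firefly luciferase reporter in P. falciparum. Infected erythrocytes at 2% hematocrit, 0.05% parasitemia final were treated 96 hours at 37 C under 5% CO2, and luminescence was read.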
# On the % scale 0 is the no-effect control and ±100 the full control effect; potency means the concentration at half of the fitted maximal effect.
SMILES,Potency,"activity change, negative = inhibition"
Cc1oc(-c2cccc(Cl)c2)nc1CN1CCCC(C(=O)NC(C)c2ccc3c(c2)OCCO3)C1 (stereo unspecified),"inconclusive: 18.5 µM [inhibitor, single point]",–
CC1CCN(CCCNC(=O)c2coc3nc4ccccc4nc23)CC1,inactive,–
Cn1nccc1C(=O)OCC(=O)Nc1ccccc1Cl,"inconclusive: 1.31 µM [inhibitor, full curve]",–
CC(=O)C1=C(O)C(=O)N(CCc2c[nH]c3ccccc23)C1c1ccc(O)cc1 (stereo unspecified),"inconclusive: 11.7 µM [inhibitor, single point]",–
O=C(NCCCC(=O)N1CCOCC1)c1cccnc1,"inconclusive: 11.7 µM [inhibitor, partial curve, poor fit]",–
Cc1ncc(CN2CCCC(CCC(=O)NCc3ccc(F)c(F)c3)C2)s1 (stereo unspecified),"inconclusive: 18.5 µM [inhibitor, single point]",–
CC(=O)NCC(=O)OCC(=O)Nc1ccc(C(C)=O)cc1,"inconclusive: 9.28 µM [inhibitor, partial curve]",–
CN1C[C@@H]2C(c3ccccc3)C3(c4cccnc4)CC2(C3)[C@H]1c1ccccc1 (stereo partly specified),active: 11.7 µM,–
C[C@@]12CCC3[C@@](CC[C@@H]4[C@](C)(C(=O)O)CCC[C@@]34C)(C[C@H]1O)C2 (stereo partly specified),"inconclusive: 9.28 µM [inhibitor, partial curve]",–
O=C(Nc1ccncc1)c1sc2ccccc2c1Cl,"inconclusive: 0.329 µM [inhibitor, full curve, poor fit]",–
CSCC[C@H](NC(=O)OC(C)(C)C)c1nnc(SCc2ccc(F)cc2)o1,"inconclusive: 14.7 µM [inhibitor, partial curve, poor fit]",–
CC(OC(=O)c1nc(Cl)ccc1Cl)C(=O)Nc1ccc2c(c1)OCCO2 (stereo unspecified),inactive,–
Cc1ccnc(NS(=O)(=O)c2ccc(NC(=O)c3ccc(S(=O)(=O)N4CC(C)OC(C)C4)cc3)cc2)n1 (stereo unspecified),inactive,–
Cc1ccccc1CC(=O)c1ccc(O)c(C)c1O,"inconclusive: 13.1 µM [inhibitor, single point]",–
CCCCN(C(=O)CSCC(=O)Nc1ccc(OC)cc1)c1c(N)n(CCC)c(=O)[nH]c1=O,"inconclusive: 1.31 µM [inhibitor, partial curve, poor fit]",–
COc1ccc(NC(=S)NCCc2ccc(Cl)cc2)c(OC)c1,"inconclusive: 13.1 µM [inhibitor, partial curve]",–
Cc1ccc(SC2CC(=O)N(c3ccc4c(c3)OCCO4)C2=O)cc1 (stereo unspecified),–,inactive: -31.9% [at 5.75 µM]
COC(=O)NNC(=O)COc1ccc2ccccc2c1Br,inactive,–
CNC(=O)C1CC(=O)N(c2ccc(OCC(=O)Nc3ccccc3C)cc2)C1 (stereo unspecified),"inconclusive: 20.8 µM [inhibitor, partial curve, poor fit]",–
NC(=O)C(Cc1ccccc1)NS(=O)(=O)c1ccc(N2CCCC2=O)cc1 (stereo unspecified),active: 9.28 µM,–
CCC(=O)Nc1ccc(NC(=O)c2cccc3c(Br)cccc23)cc1,active: 6.57 µM,–
O=C(CCn1cccc(C(F)(F)F)c1=O)Nc1cccc(C(F)(F)F)c1,inactive,–

SMILES,Potency,"activity change, negative = inhibition"
O=C(Nc1ccc(CN2CCOCC2)cc1)c1ccc(N2CCCC2)c([N+](=O)[O-])c1,inactive,–
COc1cccc(CNS(=O)(=O)c2ccc(N3CCCC3=O)cc2)c1,"inconclusive: 11.7 µM [inhibitor, single point]",–
CCN1C(=O)C(O)(CC(=O)c2cc(C)ccc2C)c2ccccc21 (stereo unspecified),"inconclusive: 0.586 µM [inhibitor, full curve, poor fit]",–
COc1ccc2[nH]c(=O)c(CN(Cc3cccs3)C(=S)Nc3cccc(C)c3)cc2c1,"inconclusive: 10.4 µM [inhibitor, single point]",–
Cc1ccc(/C=N\NC(=O)C2CC(=O)N(c3ccccc3)C2)o1 (stereo unspecified),inactive,–
COc1ccc(OC)c(/C(C)=N\NC(=O)c2cc3cc(Cl)ccc3n2C)c1,inactive,–
COCc1c(C(=O)N2CCN(Cc3ccc(C#N)cc3)CC2)oc2ccccc12,"inconclusive: 18.5 µM [inhibitor, single point]",–
O=C(NNC(=O)c1ccccc1Br)c1cccc(Cl)c1,inactive,–
COc1cc(NC(=O)c2ccc(C)cc2C)ccc1NC(=O)c1cccs1,inactive,–
CCC(=O)Nc1ccc(C(=O)CSc2nnc(-c3cccnc3)o2)cc1,"inconclusive: 16.5 µM [inhibitor, single point]",–
CC(=O)c1ccc(N2CCN(S(=O)(=O)c3cc(-c4cc(C)no4)ccc3C(C)C)CC2)cc1,"inconclusive: 2.94 µM [inhibitor, full curve]",–
O=C(N/N=C/c1cccnc1)c1cc(-c2ccccc2)nc2ccccc12,"inconclusive: 18.5 µM [inhibitor, single point]",–
Cc1noc(C)c1COc1ccccc1C(=O)N1CCN(S(=O)(=O)c2ccccc2F)CC1,"inconclusive: 10.4 µM [inhibitor, single point]",–
Cc1ccc2cc(CCNC(=O)c3ccc(C)c([N+](=O)[O-])c3)c(=O)[nH]c2c1,active: 4.65 µM,–
COc1cccc(C2/C(=C(\O)c3ccc4c(c3)OCCO4)C(=O)C(=O)N2c2nnc(C)s2)c1 (stereo unspecified),"inconclusive: 18.5 µM [inhibitor, partial curve, poor fit]",–
CCOC(=O)c1c(CSC(=N)N)n(-c2ccc(Br)cc2)c2cc(Br)c(OC(C)=O)cc12,"inconclusive: 13.1 µM [inhibitor, single point]",–
Cc1ccc(-c2nnc3cccc(Cl)n23)cc1,"inconclusive: 13.1 µM [inhibitor, single point]",–
CC(C)C(C)NC(=O)COn1nnc2ccc(S(=O)(=O)N3CCOCC3)cc21 (stereo unspecified),"inconclusive: 10.4 µM [inhibitor, single point]",–
COc1ccc(-c2csc(NC(=S)NC(=O)/C=C/c3ccc(C(C)C)cc3)n2)cc1OC,"inconclusive: 11.7 µM [inhibitor, partial curve, poor fit]",–
CCOC(=O)C1(Cc2ccccc2C(F)(F)F)CCN(C(=O)c2cc(C)n(C)n2)CC1,"inconclusive: 18.5 µM [inhibitor, single point]",–
CCc1nnc(NC(=O)C2CCC(CNc3c(N4CCC(C)CC4)c(=O)c3=O)CC2)s1 (stereo unspecified),"inconclusive: 9.28 µM [inhibitor, single point]",–
O=C(c1ccccn1)N(Cc1cc2ccccc2[nH]c1=O)C1CCCCC1,"inconclusive: 18.5 µM [inhibitor, single point]",–

SMILES,Potency,"activity change, negative = inhibition"
O=S(=O)(Nc1cccc(C(F)(F)F)c1)c1cccnc1,"inconclusive: 11.7 µM [inhibitor, partial curve]",–
Cc1ccc(NC(=O)C(c2ccccc2)N2CCN(CC(=O)N3CCOCC3)CC2)cc1Cl (stereo unspecified),"inconclusive: 18.5 µM [inhibitor, single point]",–
CCN(C(=O)COC(=O)c1c(C)nn(-c2ccccc2)c1Cl)c1c(N)n(Cc2ccccc2)c(=O)[nH]c1=O,"inconclusive: 4.15 µM [inhibitor, partial curve, poor fit]",–
O=C(CCC(=O)c1ccc(F)cc1)Nc1cccc(C(F)(F)F)c1,inactive,–
Fc1ccccc1N1CCN(c2nc(-c3cccs3)nc3ccccc23)CC1,"inconclusive: 18.5 µM [inhibitor, single point]",–
Cc1ccc2cc(C)c(SCC#N)nc2c1,"inconclusive: 13.1 µM [inhibitor, single point]",–
COc1ccc(C(=O)CSc2nnc(NC(=O)C3CC(=O)N(c4ccccc4C)C3)s2)cc1 (stereo unspecified),"inconclusive: 18.5 µM [inhibitor, single point]",–
CCn1cc(C(=O)O)c(=O)c2cc(F)c(N/N=C/c3ccccc3)cc21,"inconclusive: 2.62 µM [inhibitor, full curve, poor fit]",–
CC1CN(C(=O)c2cn3ccccc3n2)CC(C)O1 (stereo unspecified),inactive,–
COc1ccc(CNC(=O)CCC2N=C3c4ccccc4N=C(SCC(=O)NCC4CCCO4)N3C2=O)cc1 (stereo unspecified),active: 13.1 µM,–
CCc1ccc(OCc2nnc(SCC(=O)NCc3ccco3)o2)cc1,–,inactive: 7.6% [at 5.75 µM]
CNc1nc(-c2ccc3c(c2)CCN3C(=O)c2ccc(F)cc2)cs1,"inconclusive: 9.28 µM [inhibitor, single point]",–
N#CCC(=N)N1CCN(c2ccc(F)cc2)CC1,inactive,–
COCc1c(C(C)C)nc(C(C)C)c(/C=C/[C@@H](O)C[C@@H](O)CC(=O)O)c1-c1ccc(F)cc1,"inconclusive: 16.9 µM [inhibitor, single point]",–
O=C(NCc1cccc(Cl)c1)c1ccncc1,"inconclusive: 10.4 µM [inhibitor, single point]",–
COc1cc(-c2c(C#N)c(N)nc3c2CCCC3)cc(OC)c1OC,"inconclusive: 18.5 µM [inhibitor, single point]",–
COc1ccc(N2CCN(C(=O)c3ccc4[nH]c(C)c(C)c4c3)CC2)cc1,"inconclusive: 0.0029 µM [inhibitor, full curve, poor fit]",–
C/C(=N\Nc1ccc(S(=O)(=O)N2CCCCC2)cn1)c1cccc(Br)c1,"inconclusive: 18.5 µM [inhibitor, single point]",–
CCc1cc2c(NCC3CCCO3)nc(C)nc2s1 (stereo unspecified),"inconclusive: 18.5 µM [inhibitor, single point]",–
Cc1cccc(NC(=S)N2CCN(c3ccccc3F)CC2)c1C,inactive,–
CCOc1[nH]n(-c2ccccc2)c(=O)c1C=NCc1cccnc1,active: 18.5 µM,–
COc1ccc2nc(SCC(=O)NCc3ccc(S(N)(=O)=O)cc3)[nH]c2c1,"inconclusive: 5.22 µM [inhibitor, partial curve]",–

# Part of the list above, tab-delimited.
SMILES	Potency	activity change, negative = inhibition
CC1CCN(CCCNC(=O)c2coc3nc4ccccc4nc23)CC1	inactive	–
Cn1nccc1C(=O)OCC(=O)Nc1ccccc1Cl	inconclusive: 1.31 µM [inhibitor, full curve]	–
CC(=O)C1=C(O)C(=O)N(CCc2c[nH]c3ccccc23)C1c1ccc(O)cc1 (stereo unspecified)	inconclusive: 11.7 µM [inhibitor, single point]	–
O=C(NCCCC(=O)N1CCOCC1)c1cccnc1	inconclusive: 11.7 µM [inhibitor, partial curve, poor fit]	–
Cc1ncc(CN2CCCC(CCC(=O)NCc3ccc(F)c(F)c3)C2)s1 (stereo unspecified)	inconclusive: 18.5 µM [inhibitor, single point]	–
